From patent US6015790A (BASF Aktiengesellschaft, priority 1997, dated 2000) come the findings set out here.

A short description of this series: Fmoc solid-phase peptide synthesis; Fmoc-Pro-p-alkoxybenzyl-alcohol-resin; PyBrop, BOP-Cl after N-methyl amino acids; EDCI/HOBt in solution; PyBop. Particulars: whole synthesis, scale 3 mmol.

“N,N-dimethyl-Val-Val-NMe-Val-Pro-{1-[thiazol-(2)-yl]-2-phenyl}-ethylamide” returned a crude mass of 750 mg.
